Results: the supplement of paper PMC12764529
± gives the half width of the 95% confidence interval. For many entries, trypsin and chymotrypsin gave values far apart.

Assays:
[1] = folding stability dG unfold (combined trypsin and chymotrypsin); higher = more stable
Method: (§1)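 Folding stability of de novo designed mini-proteins (<80 aa, no Cys; designed by TrROS, TrMRF, ProteinMPNN and the joint model) was measured by cDNA display proteolysis with trypsin and chymotrypsin. Each protease was used at 11 concentrations in a threefold dilution series plus a no-protease condition. K50 was inferred by Bayesian fitting of sequencing counts, and dG unfold was derived against a sequence-predicted unfolded-state K50 (Tsuboyama et al. method). Sequences shown include variable-length N-terminal GS-type padding (SAGGSAGG...) inside a display construct carrying a PA tag. Rows were kept only if the AF2 dimer inter-PAE was >15, to exclude likely homo-oligomers.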

[2] = folding stability dG unfold from trypsin proteolysis; higher = more stable
Method: as §1

[3] = folding stability dG unfold from chymotrypsin proteolysis; higher = more stable
Method: as §1

| Sequence | folding stability dG unfold [1] | folding stability dG unfold [2] | folding stability dG unfold [3] |
| --- | --- | --- | --- |
| SLSEEEAKDNPEEANEKMQPPPVPPIPLPVPIRNPDNKQEFPAPFEIRTLPNHLEFRFPGNGKPFPVPIDSA [r9_548_TrROS] | 2.63 ± 0.28 kcal/mol | 2.53 ± 0.24 kcal/mol | 2.87 ± 0.11 kcal/mol |
| SAGGSAGGSAGNMEVIEEVEFTFPGLGVKISVSIFKTDGGIVIMIDIEIPMPPEDRKKFKSAGGSAGGSAGG [r17_431_TrROS] | 1.25 ± 0.15 kcal/mol | 0.857 ± 0.097 kcal/mol | 1.61 ± 0.18 kcal/mol |
| SAGGSAGGSMPAGAPVEVTLVVPLPDGPLLVLRAVVRRLPDGSAVVVAVEPGVATSLEELLRHSAGGSAGGS [r12_386_TrMRF] | 1.22 ± 0.059 kcal/mol | -1.2 ± 0.77 kcal/mol | 1.702 ± 0.016 kcal/mol |
| SAGGSAGGSAGSVTVSSTTTTLTDSMRVITETFTSPDLVKVTFVPTSNPEDVTVTTLPSASAGGSAGGSAGG [r11_1046_JUSTAS] | 0.643 ± 0.092 kcal/mol | -0.417 ± 0.093 kcal/mol | 1.04 ± 0.026 kcal/mol |
| SAGGKKDKYIVEVEFKDGKKVTIEVDGKSIEEILEELKKLGAKEVKIKVYRNGKLIEEFTIKLPPGKSAGGS [r16_700_TrROS_Hall] | 3.61 ± 0.16 kcal/mol | 1.53 ± 0.046 kcal/mol | 4.08 ± 0.1 kcal/mol |
| SKVEIVEVKKNKNKPNVYEFKIKVDGKEYTIKITKDKKTNKFIVEIEVNGKKYTFEFKSLEDALKALKKLSA [r9_366_TrROS_Hall] | 5.35 ± 0.37 kcal/mol | 2.46 ± 0.12 kcal/mol | 5.72 ± 0.13 kcal/mol |
| SAGGSAGGSAGGPVVNILVKHPNGKKETISVDVKEENIGEVATDILPKGYEVLEPSVFPGSAGGSAGGSAGG [r7_159_TrMRF] | < -1 kcal/mol | -0.258 ± 0.1 kcal/mol | – |
| MPEEWKVIAEIKIEVEVDGKTYEITVEVYYNKETGKVVVKVEVYDKETGKKSEELKKLAEELVKKLLEALKS [r1_229_TrROS_Hall] | > 6 kcal/mol | 2.89 ± 0.31 kcal/mol | – |
| SAGMKIEEENGQLKLTLTVTDENGNTYKVTVTVTPDEITVKIEPLPPVPEIEAESEEEAEAAKKKLEEASAG [r5_272_TrROS_Hall] | > 6 kcal/mol | 1.88 ± 0.37 kcal/mol | – |
| SGYMIKIKFEITNPNNGMKMEFDFWATLEEAKKLAKELAKRFPNMNVRVKIVEIEVMPIPPPKKVDPDDKSA [r9_14_TrROS] | – | 2.25 ± 0.14 kcal/mol | 4.95 ± 0.42 kcal/mol |
| SAGEIAKEIAEKLGIKNAKVKEVKIEKNKDGKIVEIEIEVELEDGRKLKITIRIEKGKVEIKIEEVEPSAGG [r19_392_TrROS_Hall] | > 6 kcal/mol | 3.7 ± 0.17 kcal/mol | – |
| SAGGSAGGSAGGGVAVLKIDLETGEITVEPAHPDTEVPVDFDGDSVIAVVRGDKIEIRPSAGGSAGGSAGGS [r10_817_TrMRF] | 0.669 ± 0.12 kcal/mol | 1.28 ± 0.089 kcal/mol | – |
| SAGGSAGGSAGKFKPGEEIVIVAKTKEEADKLKKLFPNAKIKVIPVEKKVYVDKKTKKAKSAGGSAGGSAGG [r17_126_TrROS_Hall] | -0.0651 ± 0.59 kcal/mol | 1.12 ± 0.18 kcal/mol | – |
| SAGGSAGGSMVTTSIDPSGTAKITVTDGGGVPVSTATIPVDPNAILTYDPNNSSISTFSPVSSSAGGSAGGS [r12_1002_JUSTAS] | -0.442 ± 0.24 kcal/mol | 0.519 ± 0.032 kcal/mol | – |
| SAGGSAGGSAGGTIRFPNGAEITEIQFNDNGYIRIEGEYRTPGGPKRVEIWIPLSPEDAKSAGGSAGGSAGG [r7_38_TrROS] | 0.224 ± 0.25 kcal/mol | 1.02 ± 0.085 kcal/mol | – |
| SAGGSAGGSATVDEVIKEAREEAREEHPNYPPGQTHTIKIRDPDNGEKVKIRFTNDGKIEISAGGSAGGSAG [r3_441_TrROS] | < -1 kcal/mol | -0.0324 ± 0.057 kcal/mol | – |
| SAGGMSPELEELRQKLEEEAKAKAEAEAEEVAKKNPNTPVTITYEEEFELPNGEPVKLKVEINIPLLSAGGS [r16_574_JUSTAS] | 0.45 ± 0.11 kcal/mol | 1.06 ± 0.042 kcal/mol | – |
| SGSPSTPVTITVEFPPRLTTVLYREPTRPPLGYLLVPEPSRTETITVPVSEVAAVKAELEPRGMTVTVTASA [r9_167_JUSTAS] | < -1 kcal/mol | -0.69 ± 0.33 kcal/mol | – |
| SAGGSAGGSAGREFAEKLGIDEVEDIHPPPGRYPISIRNPNKGKPREINMPESEAEDFIKSAGGSAGGSAGG [r11_630_TrROS] | > 6 kcal/mol | 3.12 ± 0.58 kcal/mol | – |
| SDVNIKPEKVDPNGIFTVEIPVDNNNVDKLREIINEIFPNFEPTEVKPNPESGYHEIIMRVPDGKAFEFSSA [r9_1164_TrROS] | -0.55 ± 0.14 kcal/mol | -0.141 ± 0.04 kcal/mol | – |
| SEKVEKVTVTIEIELPNGKKIKIEVEVVRNENGELFVRIKIEVTLPNGEKKTYEITLSLEELKKLLEELLSA [r9_189_TrROS_Hall] | > 6 kcal/mol | 3.63 ± 0.26 kcal/mol | – |
| SAGGKIKIKLKDGTVIEIEITEVKTNKNGEKVAIFKAKVYDKKTGKVYEITITINKNGEIKIEIKPISAGGS [r16_651_TrROS_Hall] | > 6 kcal/mol | 2.99 ± 0.45 kcal/mol | – |
| SAGGSAGGSLIERLADELQEQGFEIEVKRVEIEPDPNGHLSIRFEVRIEPPPPPPSPEERDKNSAGGSAGGS [r12_120_TrROS] | 1.04 ± 0.3 kcal/mol | 2 ± 0.16 kcal/mol | – |

| Sequence | folding stability dG unfold [1] | folding stability dG unfold [2] | folding stability dG unfold [3] |
| --- | --- | --- | --- |
| SAGGSAGGSAGGSMENPEVPIETVEIEIPVYEPGGKPIGPVKVTIPSSVSLEEVEKMVLSSAGGSAGGSAGG [r7_110_JUSTAS] | 0.183 ± 0.072 kcal/mol | 1.07 ± 0.035 kcal/mol | – |
| SMTITLELTNKDGSKIRIEITVTYDKETKEVYVKVKIEVTDKNGKKHEKTIIIKAPSLDEALKAAKELLSSA [r9_337_TrROS_Hall] | > 6 kcal/mol | 3.4 ± 0.22 kcal/mol | – |
| SAGGKEKEITVFKIEIKIEMKIKMKLEIDKDGNIKMEIEMEIKIEIKIEEKKIKVELDKDGKIVKIEPSAGG [r13_148_TrROS_Hall] | > 6 kcal/mol | 2.56 ± 0.22 kcal/mol | – |
| SAGGSRQVIEWEFKDPKNGKPFEISIEYDEENGVPMVEIRDRNGEPNAVVPVPPDNADEALEKFGISAGGSA [r2_115_TrROS] | < -1 kcal/mol | -0.903 ± 0.46 kcal/mol | – |
| SAGGSAGGSAGGRIWIMLPGMSKEQIAKELSDGYDIKNVEIEPIPDGMVMIEIEVKPKPSAGGSAGGSAGGS [r10_1219_TrROS] | 0.58 ± 0.16 kcal/mol | 1.17 ± 0.059 kcal/mol | – |
| SAPPYVYITIRVEVERNPNGQRKHKVDVTVRFPDPNMTLEQALDMAKEAADNFAEENGYDVKIDDIEIMSAG [r14_190_TrROS] | – | 2.16 ± 0.43 kcal/mol | – |
| KTITLTAEEVLKKIEELIKKGYEIVKITITNKKGEKIEFETKKDLLDALKKKFENMPKEDLTVKVEVKKKPS [r1_325_TrROS_Hall] | > 6 kcal/mol | 3.05 ± 0.3 kcal/mol | – |
| SAGGSASYSSLKITIIDTGTTTTVPPGATTTPTVVKLPDNKTAIITTTTPPDGTTATTVELFDNDKSAGGSA [r15_559_JUSTAS] | < -1 kcal/mol | -0.717 ± 0.12 kcal/mol | – |
| SAMTITITTKDGKKITITINEDGTITITIDGKKKTITIKPGETITSITFDKDTGKISITVNGKTIVLEASAG [r14_276_TrROS_Hall] | > 6 kcal/mol | 3.91 ± 0.16 kcal/mol | – |
| SAMTTTETFEEGDYVYTVITTKIPSSLPPDSVVTIPVTTPLGAESEVVSEPGGTITVKVRLKKEDPELLSAG [r14_754_JUSTAS] | -0.176 ± 0.13 kcal/mol | – | 0.14 ± 0.088 kcal/mol |
| SAGGVPVPPEVEYPISPEAVELAEKLAPELGAKNFKVTVVSVEPGYITVEITLPDTGKTVTVTIPLGSAGGS [r16_281_JUSTAS] | 1.82 ± 0.053 kcal/mol | – | 1.987 ± 0.015 kcal/mol |
| SAGGSAGGSAGGSLVSTSPLPSSSTLVTEKGPSPEVTVTVVTVKPGGSRSVTTLPVSESSAGGSAGGSAGGS [r10_140_JUSTAS] | -0.143 ± 0.12 kcal/mol | – | 0.474 ± 0.057 kcal/mol |
| SAGGSAGGSADEELERLRRRAPAPRPKVRLEIRAETAEEAEAAARALLAAGVDEVEVVRVPESAGGSAGGSA [r18_258_TrROS_Hall] | 0.787 ± 0.17 kcal/mol | – | 1.29 ± 0.09 kcal/mol |
| SAGGSAGGSAGGPLTLVITDLPLEEAEALAARLRALGIDVEVFVVPVEREPRPLEPVARSAGGSAGGSAGGS [r10_361_TrMRF] | 1.87 ± 0.091 kcal/mol | – | 2.41 ± 0.046 kcal/mol |
| SAGGPGFQRYPYTLELPDGRKITVEYWRMGDNPYVQIDIRHDGEPLGTIHVPVPSPDQIEDAAKDIISAGGS [r16_55_TrROS] | 1.58 ± 0.072 kcal/mol | – | 1.78 ± 0.054 kcal/mol |
| SAGGSAGGSAGGSGPEELARELARLLPPGARVEVRVRRLPETDRLVVEVRVYSPEELERSAGGSAGGSAGGS [r4_350_TrROS_Hall] | 1.12 ± 0.044 kcal/mol | – | 1.63 ± 0.041 kcal/mol |
| SAGGSVTLPPEEARAYAEAHPDRDLVLSMRPDDSTVTLELSVDPAAPGALSVRRREVFDPAGNATVVDSAGG [r13_481_JUSTAS] | -0.182 ± 0.15 kcal/mol | – | 0.308 ± 0.13 kcal/mol |
| SMSEVVEESEFNGEKVITIKVTLPDGTPVTVTITLSPEGEGTVTTVPPSSSTSTTTTVPVSQVDEVLEALSA [r9_91_JUSTAS] | 1.61 ± 0.074 kcal/mol | – | 1.4 ± 0.031 kcal/mol |
| STLEDFVVTSTSDKTLPDGSPETVETAGDYTLTFNPATGEYTLYKGDKEVLKKLVPAKGPDPTNPAVVARSA [r9_1065_JUSTAS] | 0.984 ± 0.04 kcal/mol | – | 1.55 ± 0.045 kcal/mol |
| SAGGSAMKKEITIKAPGLSIEEIKELLKKLGITPLKYDENTGTITILATESDIKKIESLLNYTVISSAGGSA [r15_731_JUSTAS] | 4.15 ± 0.23 kcal/mol | – | 3.63 ± 0.16 kcal/mol |
| SAGGSAGGSAGGVVSRLPEDAILVTTTTLQTVDFELPDGTLRTEKRTTTTVTILPPELSSAGGSAGGSAGGS [r10_383_JUSTAS] | 0.628 ± 0.12 kcal/mol | – | 1.13 ± 0.038 kcal/mol |
| SAGGMILKTEVTEVDPATGLVTVRYEVSPEDLKKLGPLNLPGVTETRYEPGKNTITAVMPRAAAEALSAGGS [r16_614_JUSTAS] | 0.645 ± 0.063 kcal/mol | – | 1.09 ± 0.051 kcal/mol |

Some of the entries so far, tab-delimited:
Sequence	folding stability dG unfold [1]	folding stability dG unfold [2]	folding stability dG unfold [3]
SAGGSAGGSAGGSMENPEVPIETVEIEIPVYEPGGKPIGPVKVTIPSSVSLEEVEKMVLSSAGGSAGGSAGG [r7_110_JUSTAS]	0.183 ± 0.072 kcal/mol	1.07 ± 0.035 kcal/mol	–
SMTITLELTNKDGSKIRIEITVTYDKETKEVYVKVKIEVTDKNGKKHEKTIIIKAPSLDEALKAAKELLSSA [r9_337_TrROS_Hall]	> 6 kcal/mol	3.4 ± 0.22 kcal/mol	–
STLEDFVVTSTSDKTLPDGSPETVETAGDYTLTFNPATGEYTLYKGDKEVLKKLVPAKGPDPTNPAVVARSA [r9_1065_JUSTAS]	0.984 ± 0.04 kcal/mol	–	1.55 ± 0.045 kcal/mol
